# Test results reported in publication PMC8583188.
# No constants are given. Whether binding was seen depends on the method and setting. Some binding calls cover weakened binding; strength is not graded here. Tags and fused reporters may be left off the sequences shown.
# T1: GENOMES UNCOUPLED 1 (GUN1), full-length, fused to the GAL4 DNA binding domain (Arabidopsis thaliana) (UniProt Q9SIC9)
# T1 sequence: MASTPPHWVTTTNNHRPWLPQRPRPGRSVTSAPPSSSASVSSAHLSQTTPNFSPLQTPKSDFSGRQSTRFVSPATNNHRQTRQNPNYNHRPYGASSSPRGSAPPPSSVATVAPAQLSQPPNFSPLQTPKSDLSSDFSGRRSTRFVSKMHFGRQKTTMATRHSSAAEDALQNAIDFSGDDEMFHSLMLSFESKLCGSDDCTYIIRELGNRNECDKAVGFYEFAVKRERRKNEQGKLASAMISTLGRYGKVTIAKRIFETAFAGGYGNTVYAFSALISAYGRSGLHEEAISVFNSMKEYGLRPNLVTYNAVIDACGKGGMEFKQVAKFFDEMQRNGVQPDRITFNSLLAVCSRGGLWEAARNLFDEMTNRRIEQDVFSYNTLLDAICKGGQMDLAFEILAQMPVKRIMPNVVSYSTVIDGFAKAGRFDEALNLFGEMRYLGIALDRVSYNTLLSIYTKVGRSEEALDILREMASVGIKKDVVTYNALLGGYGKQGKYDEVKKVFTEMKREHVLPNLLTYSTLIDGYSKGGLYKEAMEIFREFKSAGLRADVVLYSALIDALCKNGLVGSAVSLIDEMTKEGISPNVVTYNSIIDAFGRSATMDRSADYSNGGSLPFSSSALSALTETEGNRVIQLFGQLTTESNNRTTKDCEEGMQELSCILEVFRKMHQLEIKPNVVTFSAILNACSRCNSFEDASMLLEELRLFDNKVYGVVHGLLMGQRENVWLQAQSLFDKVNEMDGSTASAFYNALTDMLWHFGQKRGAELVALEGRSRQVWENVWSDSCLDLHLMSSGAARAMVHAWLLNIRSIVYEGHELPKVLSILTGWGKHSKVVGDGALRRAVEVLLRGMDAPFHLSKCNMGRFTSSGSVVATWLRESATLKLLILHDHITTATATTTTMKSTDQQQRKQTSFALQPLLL
# Biological target: T1, GENOMES UNCOUPLED 1 (GUN1), full-length, fused to the GAL4 DNA binding domain (Arabidopsis thaliana)
# Assay: two-hybrid; pair-wise; full-length GUN1 on the GAL4 BD (pGBKT7) as bait, full-length candidates on the GAL4 AD (pGADT7) as prey; yeast AH109; growth on TDO (SD/-Leu/-Trp/-His) and QDO (SD/-Leu/-Trp/-His/-Ade) with or without X-α-Gal; 5 d at 30 °C
row,Binder,binding
1,"GGT1, full-length, fused to the GAL4 activation domain (protein, UniProt Q9LR30 1-481) MALKALDYDTLNENVKKCQYAVRGELYLRASELQKEGKKIIFTNVGNPHALGQKPLTFPRQVVALCQAPFLLDDPNVGMLFPADAIARAKHYLSLTSGGLGAYSDSRGLPGVRKEVAEFIQRRDGYPSDPELIFLTDGASKGVMQILNCVIRGNGDGILVPVPQYPLYSATISLLGGTLVPYYLDESENWGLDVANLRQSVAQARSQGITVRAMVIINPGNPTGQCLSEANIREILKFCYNEKLVLLGDEVYQQNIYQDERPFISSKKVLMEMGSPFSKEVQLVSFHTVSKGYWGECGQRGGYFEMTNLPPRVVEEIYKVASIALSPNVSAQIFMGLMVNPPKPGDISYDQFARESKGILESLRRRARLMTDGFNSCKNVVCNFTEGAMYSFPQIRLPTGALQAAKQAGKVPDVFYCLKLLEATGISTVPGSGFGQKEGVFHLRTTILPAEDEMPEIMDSFKKFNDEFMTQYDNNFGYSKM",binds
2,"EML3, full-length, fused to the GAL4 activation domain (protein, UniProt F4K2F0 1-397) MDYRPSDSSGTDDDLPPSHQGRYQRNARPTGNGRPSVLNSAPLSRVHNEMETQIHLIEQEAYSSILRAFKAQSDAITWEKESLITELRKELRVSDEEHRELLSRVNADEMIRRIREWRKANSLQSSVPQLVHDAPSPAVSGSRKKQKTSQSIASLAMGPPSPSLHPSMQPSSSALRRGGPPPGPKTKKPKTSMQYPSTGIAGRPQAGALTNEPGESGSYDPLVGRKVWTKWPDDNQYYEAVITDYNPVEGRHALVYDINSANETWEWVNLKEISPGDIRWEGEDPGISRKGGHPGQGRGTKTMARGGPASNAGGRGRGSMRMQQPKTQNGIGKKALGEIEILHTETLLKEVEKVFGSVNPNPAEVEKAKRVLRDHELALMDAIAKLEEISDGESGNI",binds
3,"BAG7, full-length, fused to the GAL4 activation domain (protein, UniProt Q9LVA0 1-446) MTLFHRLDLIDPYTCTPLIVRETSIVEPSSLFLGFPSFIDEDIEDLFEFSSPNPLDLFETVTDLVKIKKSPSSCKYKVIRRRLEPEYPLKYLCDRVSDLESKFDRLVSPKSDRKYTLTKEIKGSGERKYKWEAEIQGPLERKYKLEAEIEGSGERKYRWTTEIKGGKKDEEGLKLAALKKEKAKAKAIAAAEAEKKKNKNKKKSYNWTTEVKSERENGEVSHTYIIKATTGGEKKKKHEEKEKKEKIETKSKKKEKTRVVVIEEEEEEDDESSEHGAIVLRKAFSRRNGAVRTKKGKNKEMPPEYAAVMIQRAFKAYLIRRSKSLRALRDLAIAKTKLKELRASFHNFSYRRLIARDGEERQKFSEKIIVLLLTVDAIEGVDVMVRGAKRSMVDELEAMLDVVDPQPQGKSLSMRRRTFDMPDSLIRKEIAEGVTQIVQMLETEEE",binds

# Continued, values first:
row,binding,Binder
1,binds,"KAC1, full-length, fused to the GAL4 activation domain (protein, UniProt Q9LX99 1-1273) MADQRSKTNRWNWEVSGFEPRKSSSNASFAESTGHRTTGPLLRRNSISTPSLPPKQAIASKVNGLKEKVKLAKEDYLELRQEATDLQEYSNAKLDRVTRYLGVLAEKSRKLDQFVLETEARISPLINEKKRLFNDLLTAKGNIKVFCRARPLFEDEGPSVIEFPGDCTICVNTSDDTLSNPKKDFEFDRVYGPHVGQAALFSDVQPFVQSALDGSNVSILSYGQTNAGKTYTMEGSNHDRGLYARCFEELFDLANSDSTSTSRFSFSLSVFEIYNEQIRDLLSETQSNLPNINMDLHESVIELGQEKVDNPLEFLGVLKSAFLNRGNYKSKFNVTHLIVSIHIYYSNTITGENIYSKLSLVDLAGSEGLIMENDSGDHVTDLLHVMNSISALGDVLSSLTSGKDSIPYDNSILTRVLADSLGGSSKTLMIVNICPSVQTLSETISCLNYAARARNTVPSLGNRDTIKKWRDVASDARKELLEKERENQNLKQEVVGLKKALKDANDQCVLLYSEVQRAWKVSFTLQSDLKSENIMLVDKHRLEKEQNSQLRNQIAQFLQLDQEQKLQMQQQDSAIQNLQAKITDLESQVSEAVRSDTTRTGDALQSQDIFSPIPKAVEGTTDSSSVTKKLEEELKKRDALIERLHEENEKLFDRLTERSMAVSTQVLSPSLRASPNIQPANVNRGEGYSAEAVALPSTPNKNNGAITLVKSGTDLVKTTPAGEYLTAALNDFDPEEYEGLAAIADGANKLLMLVLAAVIKAGASREHEILAEIRDSVFSFIRKMEPRRVMDTMLVSRVRILYIRSLLARSPELQTIRVSPVECFLEKPNTGRSKSTSRGSSPGRSPVRYLDTQIHGFKVNIKAERRNKLASVVSRMRGLEQDAGRQQVTGVKLREMQDEAKSFAIGNKALAALFVHTPAGELQRQIRLWLAENFEFLSVTSDDVSGGNGGQLELLSTAIMDGWMAGLGAAVPPHTDALGQLLSEYAKRVYTSQMQHMKDIAGTLAAEEAEDAGQVSKLRSALESVDHKRRKILQQMKSDAALLNLEEGSSPIPNPSTAAEDSRLASLISLDGILKQVKEITRQASVHVLSKSKKKALLESLDELTERMPSLLDIDHPCAQREIATAHQLVETIPEQEDTNILEQSHDRRPSLESISSGETDVSQWNVLQFNTGSSAPFIIKCGGNNNSELVIKADARVQEPKGGEIVRVVPRPSVLVNMSLEEMKQMFVQLPEALSLLALARTADGTRARYSRLYKTLAMKVPSLKDLVSELE"
2,binds,"STO, full-length, fused to the GAL4 activation domain (protein, UniProt Q96288 1-248) MKIQCDVCEKAPATVICCADEAALCPQCDIEIHAANKLASKHQRLHLNSLSTKFPRCDICQEKAAFIFCVEDRALLCRDCDESIHVANSRSANHQRFLATGIKVALTSTICSKEIEKNQPEPSNNQQKANQIPAKSTSQQQQQPSSATPLPWAVDDFFHFSDIESTDKKGQLDLGAGELDWFSDMGFFGDQINDKALPAAEVPELSVSHLGHVHSYKPMKSNVSHKKPRFETRYDDDDEEHFIVPDLG"
3,binds,"GNAT5, full-length, fused to the GAL4 activation domain (protein, UniProt Q9LR91 1-319) MAALSISLAFSVDSLKPTQSTKFGFSSSSHRYPLLYSCKSHRSNLRFAFPPSSVSTATETGEENSKSTGNYAFLEESFRTGRFLSNDELEKLKTLEGFAYFQELESGSMWVRVMRHEEMDSTVHLLAESFGESMLLPSGYQSVLRFLIKQYLIERREVLPHAVTLVGFFRKKVDEFSDDGEEEAVMAGTVEVCLEKRGANASPPSPTPPKESPYICNMTVKEDLRRRGIGWHLLKASEELISQISPSKDVYLHCRMVDEAPFNMYKKAGYEVVKTDTVLVLLMLQRRKHLMRKKLLPLCTNPIVEMVGSDNELTSSANV"
